# Earlier results as cited in patent US11596701B2, “Disinfection method using a disinfection agent formed in situ by reaction of H2O2 and NO2-” (LEIBNIZ-INSTITUT FÜR PLASMAFORSCHUNG UND TECHNOLOGIE E.V., priority 2018, dated 2023).
# At least one structure is not confirmed: it was looked up by name or label, or the drawing left a doubt.
structure (smiles),measurement,value
"O=NOO [Peroxynitrous acid, peroxynitrous acid]",life span,0.8 s
